These are yes or no findings as the source states them, for the method shown. Binding seen in cells or lysates may run through a third protein. Here binding means that the protein was enriched with, or labelled near, the bait; the list need not be complete. Sequences can lack the tags named with a protein.
Target: T1, Sgo1-6His-3Flag (S. cerevisiae) (UniProt Q08490)
T1 sequence: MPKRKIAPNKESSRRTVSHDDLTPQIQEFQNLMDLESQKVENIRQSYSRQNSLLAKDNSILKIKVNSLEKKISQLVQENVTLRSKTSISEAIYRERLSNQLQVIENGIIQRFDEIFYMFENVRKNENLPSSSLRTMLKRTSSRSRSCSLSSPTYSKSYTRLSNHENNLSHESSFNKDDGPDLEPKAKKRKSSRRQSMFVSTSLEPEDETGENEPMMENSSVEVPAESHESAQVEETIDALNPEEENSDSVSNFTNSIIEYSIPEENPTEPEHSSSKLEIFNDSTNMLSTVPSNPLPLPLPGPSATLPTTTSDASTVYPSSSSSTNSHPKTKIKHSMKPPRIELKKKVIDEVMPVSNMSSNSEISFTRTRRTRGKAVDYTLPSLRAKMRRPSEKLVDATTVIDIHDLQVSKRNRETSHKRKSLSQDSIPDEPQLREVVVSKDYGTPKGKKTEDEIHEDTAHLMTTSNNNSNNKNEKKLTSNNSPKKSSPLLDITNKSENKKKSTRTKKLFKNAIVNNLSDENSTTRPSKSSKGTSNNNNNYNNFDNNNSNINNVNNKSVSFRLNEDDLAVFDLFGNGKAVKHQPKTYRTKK
Assay: affinity purification with mass spectrometry; Sgo1-6His-3Flag immunoprecipitated with anti-Flag Protein G Dynabeads from benzonase-treated lysates of benomyl-arrested cells grown at 30°C (wild type, siz1Δ siz2Δ, sgo1-4R, sgo1-3A); label-free quantitative MS in triplicate

Chains of the proteins cited; added tags and fusions are not shown.
UniProt P38903: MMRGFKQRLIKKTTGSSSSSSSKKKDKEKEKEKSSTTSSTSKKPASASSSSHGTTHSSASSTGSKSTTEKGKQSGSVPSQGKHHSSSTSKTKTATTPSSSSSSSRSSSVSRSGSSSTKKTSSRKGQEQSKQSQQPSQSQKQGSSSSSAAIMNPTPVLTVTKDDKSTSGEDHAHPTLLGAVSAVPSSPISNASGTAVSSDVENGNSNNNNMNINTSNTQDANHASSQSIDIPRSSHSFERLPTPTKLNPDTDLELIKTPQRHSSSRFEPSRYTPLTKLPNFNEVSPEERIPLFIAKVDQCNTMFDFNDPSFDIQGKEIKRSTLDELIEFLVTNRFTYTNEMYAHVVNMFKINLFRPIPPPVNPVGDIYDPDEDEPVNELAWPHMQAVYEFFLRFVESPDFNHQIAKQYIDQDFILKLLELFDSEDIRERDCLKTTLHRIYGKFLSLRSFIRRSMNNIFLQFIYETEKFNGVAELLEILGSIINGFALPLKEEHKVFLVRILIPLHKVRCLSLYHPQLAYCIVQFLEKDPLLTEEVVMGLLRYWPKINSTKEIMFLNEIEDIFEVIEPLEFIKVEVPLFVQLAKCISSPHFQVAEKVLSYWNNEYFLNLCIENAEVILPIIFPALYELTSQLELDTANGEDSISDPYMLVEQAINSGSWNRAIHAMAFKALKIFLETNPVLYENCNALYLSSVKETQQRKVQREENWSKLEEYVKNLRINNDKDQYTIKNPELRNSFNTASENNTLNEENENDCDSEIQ

Rts1 (endogenous) (from UniProt P38903 1-757)
binding: binds

Reference: PMC8094117
